{"source": "patent US20190321420A1", "about": "“METHOD AND COMPOSITION FOR PREVENTING, TREATING OR RELIEVING BONE DISEASES” (GRAPE KING BIO Ltd., priority 2018, published 2019)", "test_system": "ovariectomized ICR female mice", "assay": "Micro-CT bone tissue analysis of the right distal femur in ovariectomized mice (osteoporosis model)", "format": "in vivo", "details": "32nd day after ovariectomy, GKM3/GKS6 205 mg/kg oral gavage once/day for 28 days, Alen 2.5 mg/kg 3 times a week for 28 days, n = 6", "protocol": "In this embodiment, GKM3 and GKS6 powders were each prepared in a 0.5% (w/v) carboxymethylcellulose (CMC) solution as a suspension with a concentration of 205 mg/mL The vehicle group used 0.5% (w/v) CMC solution. For the positive control group, the anti-osteoporosis drug, alendronate (Alen), was prepared as a 0.25 mg/mL suspension in 0.5% (w/v) CMC solution. Mice were tube-fed 0.1 mL of GKM3 suspension, GKS6 suspension, 0.5% (w/v) CMC solution or Alen suspension per 10 g of body weight.\nBecause bone metabolism is closely related to estrogen, mice with bilateral ovariectomy were used as a model for studying osteoporosis in postmenopausal animals. […]\nComputerized tomography images of the right distal femur of ICR mice were obtained by a micro-computed tomography (micro-CT) scanner (SkyScan 1076, Kontizh, Belgium) with a resolution of 18 μm and were analyzed by a software to obtain the trabecular bone volume density (i.e., bone volume/tissue volume, BV/TV), the trabecular thickness (Tb.Th), the trabecular number (Tb.N), and the trabecular spacing (Tb.Sp). The analyzed position was selected to include the area of 100 pieces under the growth plate but not the cortical bone. […]\nThe obtained data in the experiments were analyzed with one-way analysis of variance (one-way ANOVA) and the Duncan's multiple range test. […]", "note": "Marks after values point to notes of the source that are not given here.", "data": [{"compound": "NCCCC(O)(P(=O)(O)O)P(=O)(O)O", "note": "[Alen, alendronate]", "values": [{"measurement": "Trabecular bone volume density (BV/TV)", "value": "34.9 ± 2.0* %"}]}]}
